In the supplement of paper PMC10849652:
This is one part of the list.

Sequences of proteins named here, by UniProt entry; tags and fusion partners are left off. A change or cut given only in a name is not applied to a line headed by its entry.
UniProt Q9H0W9: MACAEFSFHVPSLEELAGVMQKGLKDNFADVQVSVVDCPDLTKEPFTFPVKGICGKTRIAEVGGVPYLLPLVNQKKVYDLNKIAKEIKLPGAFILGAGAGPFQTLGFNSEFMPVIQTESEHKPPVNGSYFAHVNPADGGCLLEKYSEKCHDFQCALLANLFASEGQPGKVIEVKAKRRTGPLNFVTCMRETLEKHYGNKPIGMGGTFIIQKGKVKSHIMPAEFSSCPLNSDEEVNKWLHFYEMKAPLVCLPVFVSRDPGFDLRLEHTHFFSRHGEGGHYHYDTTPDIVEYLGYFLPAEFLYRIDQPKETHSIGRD
UniProt Q9BSJ5: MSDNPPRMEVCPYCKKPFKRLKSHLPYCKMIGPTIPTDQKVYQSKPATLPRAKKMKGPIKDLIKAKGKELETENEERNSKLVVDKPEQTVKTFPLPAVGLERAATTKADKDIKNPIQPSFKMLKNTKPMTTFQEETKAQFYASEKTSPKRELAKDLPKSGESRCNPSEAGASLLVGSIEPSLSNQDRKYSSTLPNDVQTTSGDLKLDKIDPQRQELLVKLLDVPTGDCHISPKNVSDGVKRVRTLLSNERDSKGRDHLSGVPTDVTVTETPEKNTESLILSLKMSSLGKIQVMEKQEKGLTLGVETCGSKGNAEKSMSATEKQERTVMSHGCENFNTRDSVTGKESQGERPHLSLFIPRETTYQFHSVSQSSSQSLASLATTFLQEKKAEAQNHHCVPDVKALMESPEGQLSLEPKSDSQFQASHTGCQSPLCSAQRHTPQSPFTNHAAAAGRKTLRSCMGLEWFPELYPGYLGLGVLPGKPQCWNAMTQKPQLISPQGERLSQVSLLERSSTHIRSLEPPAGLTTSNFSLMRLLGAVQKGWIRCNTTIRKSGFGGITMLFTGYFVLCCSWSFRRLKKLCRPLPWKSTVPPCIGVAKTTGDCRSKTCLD
UniProt Q86VP6: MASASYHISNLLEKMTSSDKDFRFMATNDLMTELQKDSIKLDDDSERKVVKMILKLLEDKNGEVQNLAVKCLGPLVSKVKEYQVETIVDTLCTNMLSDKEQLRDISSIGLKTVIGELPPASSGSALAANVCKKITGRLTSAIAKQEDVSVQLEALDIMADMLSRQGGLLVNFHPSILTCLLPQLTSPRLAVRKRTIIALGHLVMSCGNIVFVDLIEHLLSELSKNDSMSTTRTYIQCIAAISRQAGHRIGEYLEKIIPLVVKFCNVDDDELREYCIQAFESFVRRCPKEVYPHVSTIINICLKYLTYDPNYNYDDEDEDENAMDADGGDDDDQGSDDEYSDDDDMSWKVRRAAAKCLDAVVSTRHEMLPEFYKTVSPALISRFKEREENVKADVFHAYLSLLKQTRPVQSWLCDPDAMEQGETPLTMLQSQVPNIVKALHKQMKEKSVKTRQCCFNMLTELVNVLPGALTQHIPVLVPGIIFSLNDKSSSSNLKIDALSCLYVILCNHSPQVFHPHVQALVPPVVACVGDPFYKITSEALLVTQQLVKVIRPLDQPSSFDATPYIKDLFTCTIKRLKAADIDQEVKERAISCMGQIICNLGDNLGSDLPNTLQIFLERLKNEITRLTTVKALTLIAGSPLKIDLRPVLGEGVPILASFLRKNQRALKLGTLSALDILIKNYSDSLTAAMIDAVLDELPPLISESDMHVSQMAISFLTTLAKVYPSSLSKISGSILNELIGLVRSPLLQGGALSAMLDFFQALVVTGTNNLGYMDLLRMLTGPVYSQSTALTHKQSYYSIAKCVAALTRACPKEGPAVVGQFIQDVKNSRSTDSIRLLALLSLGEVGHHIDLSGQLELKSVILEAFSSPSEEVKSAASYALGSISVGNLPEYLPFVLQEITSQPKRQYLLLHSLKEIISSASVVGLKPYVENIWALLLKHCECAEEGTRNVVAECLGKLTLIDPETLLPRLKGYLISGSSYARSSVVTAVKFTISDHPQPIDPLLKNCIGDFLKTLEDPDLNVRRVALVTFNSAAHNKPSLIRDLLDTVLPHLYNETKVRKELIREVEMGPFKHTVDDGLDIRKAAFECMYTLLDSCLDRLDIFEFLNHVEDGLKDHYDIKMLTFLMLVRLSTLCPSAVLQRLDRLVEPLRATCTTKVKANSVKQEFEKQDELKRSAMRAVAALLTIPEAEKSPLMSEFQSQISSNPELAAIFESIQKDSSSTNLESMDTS
UniProt P47756, whole entry, looked up: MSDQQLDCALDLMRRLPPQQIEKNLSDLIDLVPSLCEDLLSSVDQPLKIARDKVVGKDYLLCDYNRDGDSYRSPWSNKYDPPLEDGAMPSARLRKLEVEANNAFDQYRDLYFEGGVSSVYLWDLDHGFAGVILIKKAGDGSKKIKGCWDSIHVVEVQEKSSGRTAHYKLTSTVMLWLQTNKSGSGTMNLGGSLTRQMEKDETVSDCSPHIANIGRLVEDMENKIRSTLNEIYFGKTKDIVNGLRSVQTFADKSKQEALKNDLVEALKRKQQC
UniProt A6NDU8: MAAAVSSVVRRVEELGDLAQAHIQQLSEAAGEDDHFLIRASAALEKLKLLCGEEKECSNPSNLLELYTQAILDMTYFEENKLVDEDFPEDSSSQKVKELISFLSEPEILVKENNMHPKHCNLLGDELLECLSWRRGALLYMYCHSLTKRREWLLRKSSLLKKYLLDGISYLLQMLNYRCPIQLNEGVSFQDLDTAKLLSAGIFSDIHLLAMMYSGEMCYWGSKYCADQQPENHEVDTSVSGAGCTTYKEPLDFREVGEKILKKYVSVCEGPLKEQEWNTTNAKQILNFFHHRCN
UniProt Q6P1X6: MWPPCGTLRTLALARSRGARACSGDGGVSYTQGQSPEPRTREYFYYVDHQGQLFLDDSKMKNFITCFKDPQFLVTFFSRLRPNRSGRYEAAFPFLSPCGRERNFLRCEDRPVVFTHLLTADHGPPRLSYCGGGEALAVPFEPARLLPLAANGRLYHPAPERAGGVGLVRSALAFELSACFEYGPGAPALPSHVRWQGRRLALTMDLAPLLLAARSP
UniProt Q14444, whole entry, looked up: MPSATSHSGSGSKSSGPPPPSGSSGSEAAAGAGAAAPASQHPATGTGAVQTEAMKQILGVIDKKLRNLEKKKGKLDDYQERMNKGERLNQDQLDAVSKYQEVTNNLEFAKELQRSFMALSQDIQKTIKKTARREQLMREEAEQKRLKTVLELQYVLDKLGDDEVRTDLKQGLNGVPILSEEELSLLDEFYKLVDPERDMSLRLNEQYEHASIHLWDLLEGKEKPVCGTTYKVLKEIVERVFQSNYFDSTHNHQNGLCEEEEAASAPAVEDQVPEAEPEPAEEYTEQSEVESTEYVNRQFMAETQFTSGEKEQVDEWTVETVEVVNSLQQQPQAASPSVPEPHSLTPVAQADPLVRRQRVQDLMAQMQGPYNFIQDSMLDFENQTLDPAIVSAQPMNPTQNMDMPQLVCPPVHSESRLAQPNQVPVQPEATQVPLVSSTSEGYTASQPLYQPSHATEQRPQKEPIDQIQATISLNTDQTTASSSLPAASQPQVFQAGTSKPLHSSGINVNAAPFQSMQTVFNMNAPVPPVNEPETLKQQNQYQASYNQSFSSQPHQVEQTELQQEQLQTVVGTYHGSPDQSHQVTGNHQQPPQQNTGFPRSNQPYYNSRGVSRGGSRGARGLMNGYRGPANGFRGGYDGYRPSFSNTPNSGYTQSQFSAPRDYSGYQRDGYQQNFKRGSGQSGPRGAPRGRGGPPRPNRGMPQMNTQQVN
UniProt Q9H7E9: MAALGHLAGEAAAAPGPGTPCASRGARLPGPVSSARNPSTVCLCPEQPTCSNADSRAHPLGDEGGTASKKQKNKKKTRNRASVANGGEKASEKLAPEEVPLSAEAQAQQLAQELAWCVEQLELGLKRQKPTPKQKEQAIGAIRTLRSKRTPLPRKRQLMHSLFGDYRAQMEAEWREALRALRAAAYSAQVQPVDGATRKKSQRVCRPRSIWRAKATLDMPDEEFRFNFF
UniProt Q8WUQ7: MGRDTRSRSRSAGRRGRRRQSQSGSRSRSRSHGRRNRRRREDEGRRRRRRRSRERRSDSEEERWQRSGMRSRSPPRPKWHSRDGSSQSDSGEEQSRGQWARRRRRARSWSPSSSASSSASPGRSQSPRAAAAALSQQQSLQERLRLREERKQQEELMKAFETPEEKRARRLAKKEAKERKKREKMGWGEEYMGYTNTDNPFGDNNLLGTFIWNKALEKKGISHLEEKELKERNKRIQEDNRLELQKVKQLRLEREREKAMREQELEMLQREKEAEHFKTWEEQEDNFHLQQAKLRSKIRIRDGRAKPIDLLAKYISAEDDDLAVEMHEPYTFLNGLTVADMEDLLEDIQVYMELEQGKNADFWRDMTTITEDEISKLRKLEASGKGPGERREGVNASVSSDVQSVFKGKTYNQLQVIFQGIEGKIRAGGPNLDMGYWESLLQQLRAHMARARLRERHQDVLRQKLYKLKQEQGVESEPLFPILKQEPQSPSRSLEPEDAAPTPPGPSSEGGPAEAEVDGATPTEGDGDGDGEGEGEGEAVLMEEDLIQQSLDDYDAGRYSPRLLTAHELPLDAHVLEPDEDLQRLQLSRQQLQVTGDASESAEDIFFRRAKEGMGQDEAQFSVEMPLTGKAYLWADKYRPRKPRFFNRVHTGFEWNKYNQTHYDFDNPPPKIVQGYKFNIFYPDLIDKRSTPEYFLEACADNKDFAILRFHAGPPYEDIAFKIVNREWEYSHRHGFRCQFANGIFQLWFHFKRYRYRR
UniProt P27824: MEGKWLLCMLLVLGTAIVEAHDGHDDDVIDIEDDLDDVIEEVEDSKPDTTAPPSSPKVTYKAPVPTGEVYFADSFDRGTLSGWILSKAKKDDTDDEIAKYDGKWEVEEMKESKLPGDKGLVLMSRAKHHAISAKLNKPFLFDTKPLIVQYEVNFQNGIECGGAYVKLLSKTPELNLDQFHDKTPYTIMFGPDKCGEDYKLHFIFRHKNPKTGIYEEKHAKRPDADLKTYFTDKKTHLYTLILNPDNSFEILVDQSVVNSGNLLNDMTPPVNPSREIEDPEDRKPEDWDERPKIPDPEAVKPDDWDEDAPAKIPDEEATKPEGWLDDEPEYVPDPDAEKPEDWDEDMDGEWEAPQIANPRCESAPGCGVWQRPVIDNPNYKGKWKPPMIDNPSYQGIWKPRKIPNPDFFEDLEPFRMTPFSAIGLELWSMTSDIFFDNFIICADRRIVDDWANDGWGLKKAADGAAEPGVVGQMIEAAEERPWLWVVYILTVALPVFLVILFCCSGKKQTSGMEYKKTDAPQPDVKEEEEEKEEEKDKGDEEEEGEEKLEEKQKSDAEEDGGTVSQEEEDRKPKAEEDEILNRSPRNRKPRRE
UniProt Q8NDD1: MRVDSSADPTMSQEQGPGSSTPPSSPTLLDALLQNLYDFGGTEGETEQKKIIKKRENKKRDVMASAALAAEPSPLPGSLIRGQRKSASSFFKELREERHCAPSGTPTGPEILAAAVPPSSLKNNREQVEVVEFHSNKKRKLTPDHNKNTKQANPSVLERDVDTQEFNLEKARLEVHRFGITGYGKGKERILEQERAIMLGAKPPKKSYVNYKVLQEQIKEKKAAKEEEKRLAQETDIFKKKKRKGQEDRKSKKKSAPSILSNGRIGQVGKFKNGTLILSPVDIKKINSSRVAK
UniProt Q96B23: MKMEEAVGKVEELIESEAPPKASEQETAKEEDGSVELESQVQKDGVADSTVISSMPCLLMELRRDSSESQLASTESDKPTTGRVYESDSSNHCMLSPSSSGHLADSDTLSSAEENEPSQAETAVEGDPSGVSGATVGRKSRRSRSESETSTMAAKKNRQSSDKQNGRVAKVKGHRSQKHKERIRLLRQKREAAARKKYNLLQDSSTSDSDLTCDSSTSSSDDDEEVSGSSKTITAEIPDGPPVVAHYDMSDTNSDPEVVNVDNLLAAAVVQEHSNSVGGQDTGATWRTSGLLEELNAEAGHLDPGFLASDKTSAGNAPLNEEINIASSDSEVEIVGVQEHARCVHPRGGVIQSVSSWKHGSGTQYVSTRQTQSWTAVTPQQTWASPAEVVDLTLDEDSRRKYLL

Assays:
Assay in all cases: log2 fold change, soluble protein after heating vs DMSO (PISA); higher = thermal stabilisation; K562 cells, 10 uM, 30 min; active = over 0.2 and 3.5 SD of the protein, either way, in both replicates (recomputed)
[1] = compound: COC1=CC=C(C=C1)CN2C=CC3=C2C=C(C=C3)C(=O)NO
Summary of the method: (§1)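 Aliquots of K562 cells (2×10^6 cells/mL) treated with 10 μM compound for 30 min were heated for 3 min over 48°C-58°C. After pooling and extraction in PBS with 0.5% NP-40 at 4°C, soluble protein from a 21,000xg, 90 min spin was quantified by TMTpro 16plex LC-MS/MS with channel sums equalised. Thermal stability is expressed against control samples, from duplicates, as a log2 fold change.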

filanesib = compound: CON(C)C(=O)N1N=C(c2cc(F)ccc2F)S[C@@]1(CCCN)c1ccccc1 [filanesib]
Summary of the method: as §1

zotarolimus = compound: CO[C@H]1C[C@@H]2CC[C@@H](C)[C@@](O)(O2)C(=O)C(=O)N2CCCC[C@H]2C(=O)O[C@H]([C@H](C)C[C@@H]2CC[C@H](n3cnnn3)[C@H](OC)C2)CC(=O)[C@H](C)/C=C(\C)[C@@H](O)[C@@H](OC)C(=O)[C@H](C)C[C@H](C)/C=C/C=C/C=C/1C [zotarolimus]
Summary of the method: as §1

idasanutlin = compound: COc1cc(C(=O)O)ccc1NC(=O)[C@@H]1N[C@@H](CC(C)(C)C)[C@](C#N)(c2ccc(Cl)cc2F)[C@H]1c1cccc(Cl)c1F [idasanutlin]
Summary of the method: as §1

alisertib = compound: COc1cc(Nc2ncc3c(n2)-c2ccc(Cl)cc2C(c2c(F)cccc2OC)=NC3)ccc1C(=O)O [alisertib]
Summary of the method: as §1

[2] = compound: COc1cc2nc(-c3cc(F)ccc3O)nc(N[C@@H]3CNC[C@H]3C(C)(C)O)c2cc1OC
Summary of the method: as §1

gefitinib = compound: COc1cc2ncnc(Nc3ccc(F)c(Cl)c3)c2cc1OCCCN1CCOCC1 [gefitinib]
Summary of the method: as §1

[3] = compound: COc1cccc2cc(-c3nc([C@H]4CC[C@H](C(=O)O)CC4)n4ncnc(N)c34)[nH]c12
Summary of the method: as §1

lapatinib = compound: CS(=O)(=O)CCNCc1ccc(-c2ccc3ncnc(Nc4ccc(OCc5cccc(F)c5)c(Cl)c4)c3c2)o1 [lapatinib]
Summary of the method: as §1

pictilisib = compound: CS(=O)(=O)N1CCN(Cc2cc3nc(-c4cccc5[nH]ncc45)nc(N4CCOCC4)c3s2)CC1 [pictilisib]
Summary of the method: as §1

[4] = compound: CS(=O)(=O)c1ccc(-c2cnc(N)c(C(=O)Nc3ccccc3)n2)cc1
Summary of the method: as §1

crizotinib = compound: C[C@@H](Oc1cc(-c2cnn(C3CCNCC3)c2)cnc1N)c1c(Cl)ccc(F)c1Cl [crizotinib]
Summary of the method: as §1

[5] = compound: C[C@@H]1COCCN1C2=NC(=NC(=C2)C3(CC3)S(=O)(=O)C)C4=C5C=CNC5=CC=C4
Summary of the method: as §1

[6] = compound: C[C@H](C1=CC=C(C=C1)C(=O)NC2=C3C=CNC3=NC=C2)N
Summary of the method: as §1

duvelisib = compound: C[C@H](Nc1ncnc2nc[nH]c12)c1cc2cccc(Cl)c2c(=O)n1-c1ccccc1 [duvelisib]
Summary of the method: as §1

gandotinib = compound: Cc1cc(Nc2cc(CN3CCOCC3)c3nc(C)c(Cc4ccc(Cl)cc4F)n3n2)n[nH]1 [gandotinib]
Summary of the method: as §1

tozasertib = compound: Cc1cc(Nc2cc(N3CCN(C)CC3)nc(Sc3ccc(NC(=O)C4CC4)cc3)n2)n[nH]1 [tozasertib]
Summary of the method: as §1

[7] = compound: Cc1cc(SCc2sc(-c3ccc(C(F)(F)F)cc3)nc2C)ccc1OCC(=O)O
Summary of the method: as §1

doramapimod = compound: Cc1ccc(-n2nc(C(C)(C)C)cc2NC(=O)Nc2ccc(OCCN3CCOCC3)c3ccccc23)cc1 [doramapimod]
Summary of the method: as §1

ispinesib = compound: Cc1ccc(C(=O)N(CCCN)[C@@H](c2nc3cc(Cl)ccc3c(=O)n2Cc2ccccc2)C(C)C)cc1 [ispinesib]
Summary of the method: as §1

Measured: log2 fold change

C11orf54 (UniProt Q9H0W9)
inactive: [1] 0.152 | filanesib -0.012 | zotarolimus 0.047 | idasanutlin -0.037 | alisertib -0.023 | [2] -0.03 | gefitinib -0.018 | [3] 0.023 | lapatinib -0.02 | pictilisib -0.004 | [4] 0.061 | crizotinib -0.015 | [5] -0.02 | [6] -0.105 | duvelisib 0.059 | gandotinib 0.039 | tozasertib -0.037 | [7] 0.01 | doramapimod -0.039 | ispinesib -0.014

C17orf80 (UniProt Q9BSJ5)
inactive: [1] -0.004 | filanesib 0.031 | zotarolimus 0.024 | idasanutlin -0.002 | alisertib 0.017 | [2] 0.013 | gefitinib 0.006 | [3] -0.031 | lapatinib -0.044 | pictilisib -0.001 | [4] -0.08 | crizotinib -0.049 | [5] -0.129 | [6] -0.004 | duvelisib -0.025 | gandotinib 0.072 | tozasertib -0.083 | [7] 0.015 | doramapimod 0.005 | ispinesib 0.005

CAND1 (UniProt Q86VP6)
inactive: [1] 0.112 | filanesib -0.073 | zotarolimus -0.001 | idasanutlin -0.044 | alisertib -0.069 | [2] -0.046 | gefitinib -0.007 | [3] 0.006 | lapatinib 0.013 | pictilisib 0.027 | [4] 0.009 | crizotinib 0.026 | [5] 0.038 | [6] -0.069 | duvelisib 0.013 | gandotinib -0.02 | tozasertib -0.009 | [7] -0.031 | doramapimod -0.069 | ispinesib 0.056

CAPZB (UniProt P47756)
inactive: [1] -0.039 | filanesib -0.067 | zotarolimus 0.015 | idasanutlin -0.004 | alisertib -0.059 | [2] 0.074 | gefitinib 0.003 | [3] -0.005 | lapatinib -0.04 | pictilisib 0.021 | [4] 0.002 | crizotinib 0.022 | [5] 0.021 | [6] -0.063 | duvelisib 0.028 | gandotinib -0.008 | tozasertib 0.005 | [7] -0.023 | doramapimod 0.002 | ispinesib 0.001

C5orf51 (UniProt A6NDU8)
inactive: [1] -0.042 | filanesib -0.051 | zotarolimus 0.092 | idasanutlin -0.13 | alisertib -0.072 | [2] 0.053 | gefitinib 0.005 | [3] -0.02 | lapatinib -0.036 | pictilisib 0.014 | [4] 0.054 | crizotinib -0.028 | [5] 0.066 | [6] -0.013 | duvelisib 0.065 | gandotinib -0.184 | tozasertib 0.045 | [7] 0.013 | doramapimod -0.083 | ispinesib -0.045

C8orf82 (UniProt Q6P1X6)
inactive: [1] 0.019 | filanesib -0.04 | zotarolimus 0.012 | idasanutlin 0.015 | alisertib -0.028 | [2] 0.017 | gefitinib 0.018 | [3] 0.005 | lapatinib 0.001 | pictilisib 0.003 | [4] 0.034 | crizotinib 0.083 | [5] 0.001 | [6] -0.076 | duvelisib -0.031 | gandotinib 0.004 | tozasertib 0.007 | [7] 0.017 | doramapimod -0.107 | ispinesib 0.03

CAPRIN1 (UniProt Q14444)
inactive: [1] -0.048 | filanesib 0.196 | zotarolimus -0.042 | idasanutlin 0.118 | alisertib -0.041 | [2] -0.028 | gefitinib -0.012 | [3] -0.045 | lapatinib 0.027 | pictilisib -0.065 | [4] -0.12 | crizotinib -0.048 | [5] -0.322 | [6] 0.169 | duvelisib -0.097 | gandotinib 0.13 | tozasertib 0.015 | [7] -0.034 | doramapimod 0.056 | ispinesib -0.128

C11orf98 (UniProt E9PRG8)
inactive: [1] -0.051 | filanesib 0.329 | zotarolimus 0.026 | idasanutlin 0.143 | alisertib -0.073 | [2] -0.012 | gefitinib -0.04 | [3] -0.127 | lapatinib 0.107 | pictilisib -0.081 | [4] -0.065 | crizotinib 0 | [5] -0.475 | [6] 0.434 | duvelisib -0.203 | gandotinib 0.295 | tozasertib 0.017 | [7] -0.045 | doramapimod 0.127 | ispinesib -0.081

C8orf33 isoform 2 (UniProt Q9H7E9)
inactive: [1] -0.45 | filanesib 0.622 | zotarolimus 0.083 | idasanutlin 0.481 | alisertib -0.207 | [2] -0.034 | gefitinib -0.095 | [3] -0.387 | lapatinib 0.26 | pictilisib -0.087 | [4] -0.025 | crizotinib 0.218 | [5] -0.58 | [6] 0.703 | duvelisib -0.211 | gandotinib 0.466 | tozasertib 0.13 | [7] -0.012 | doramapimod 0.17 | ispinesib -0.101

CACTIN isoform 2 (UniProt Q8WUQ7)
inactive: [1] 0.148 | filanesib 0.088 | zotarolimus -0.082 | idasanutlin 0.135 | alisertib 0.009 | [2] 0.002 | gefitinib -0.124 | [3] 0.146 | lapatinib 0.016 | pictilisib 0.049 | [4] -0.028 | crizotinib -0.088 | [5] 0.13 | [6] -0.067 | duvelisib 0.071 | gandotinib 0.075 | tozasertib 0.001 | [7] 0.086 | doramapimod 0.04

BTF3 (UniProt P20290)
inactive: [1] -0.005 | filanesib -0.003 | zotarolimus -0.026 | idasanutlin 0.008 | alisertib -0.022 | [2] -0.087 | gefitinib -0.016 | [3] -0.007 | lapatinib 0.029 | pictilisib -0.079 | [4] -0.019 | crizotinib 0.03 | [5] -0.06 | [6] -0.046 | duvelisib -0.016 | gandotinib -0.011 | tozasertib -0.023 | [7] -0.014 | doramapimod -0.017 | ispinesib 0.03

CAPZA2 (UniProt P47755)
inactive: [1] 0.053 | filanesib -0.048 | zotarolimus 0.027 | idasanutlin -0.06 | alisertib -0.052 | [2] -0.009 | gefitinib -0.029 | [3] 0.039 | lapatinib 0.04 | pictilisib 0.032 | [4] -0.026 | crizotinib -0.017 | [5] 0.075 | [6] -0.025 | duvelisib 0.008 | gandotinib -0.043 | tozasertib 0.045 | [7] 0.033 | doramapimod -0.038 | ispinesib 0.025

Pulled one by one from above, two records:
BTF3 (UniProt P20290)
inactive: [1] -0.005 | filanesib -0.003 | zotarolimus -0.026 | idasanutlin 0.008 | alisertib -0.022 | [2] -0.087 | gefitinib -0.016 | [3] -0.007 | lapatinib 0.029 | pictilisib -0.079 | [4] -0.019 | crizotinib 0.03 | [5] -0.06 | [6] -0.046 | duvelisib -0.016 | gandotinib -0.011 | tozasertib -0.023 | [7] -0.014 | doramapimod -0.017 | ispinesib 0.03

C8orf33 isoform 2 (UniProt Q9H7E9)
inactive: [1] -0.45 | filanesib 0.622 | zotarolimus 0.083 | idasanutlin 0.481 | alisertib -0.207 | [2] -0.034 | gefitinib -0.095 | [3] -0.387 | lapatinib 0.26 | pictilisib -0.087 | [4] -0.025 | crizotinib 0.218 | [5] -0.58 | [6] 0.703 | duvelisib -0.211 | gandotinib 0.466 | tozasertib 0.13 | [7] -0.012 | doramapimod 0.17 | ispinesib -0.101

(next part)

CANX isoform 2 (UniProt P27824)
inactive: [1] -0.041 | filanesib 0.022 | zotarolimus 0.014 | idasanutlin 0.044 | alisertib -0.087 | [2] -0.017 | gefitinib 0.01 | [3] -0.041 | lapatinib 0.041 | pictilisib -0.008 | [4] 0.02 | crizotinib 0.029 | [5] -0.081 | [6] 0.129 | duvelisib -0.075 | gandotinib 0.098 | tozasertib 0.008 | [7] 0.005 | doramapimod 0.003 | ispinesib -0.036

BTF3L4 (UniProt Q96K17)
inactive: [1] 0.077 | filanesib -0.034 | zotarolimus -0.072 | idasanutlin -0.051 | alisertib -0.004 | [2] -0.045 | gefitinib -0.026 | [3] 0.04 | lapatinib 0.036 | pictilisib -0.001 | [4] 0.008 | crizotinib -0.054 | [5] 0.001 | [6] -0.064 | duvelisib 0.037 | gandotinib 0.01 | tozasertib 0.003 | [7] -0.037 | doramapimod -0.003 | ispinesib 0.037

C1orf131 isoform 5 (UniProt Q8NDD1)
inactive: [1] -0.132 | filanesib 0.247 | zotarolimus 0.012 | idasanutlin 0.182 | alisertib -0.045 | [2] -0.039 | gefitinib 0.022 | [3] -0.064 | lapatinib 0.107 | pictilisib -0.07 | [4] 0.008 | crizotinib 0.025 | [5] -0.141 | [6] 0.336 | duvelisib -0.106 | gandotinib 0.154 | tozasertib -0.087 | [7] 0.059 | doramapimod 0.159 | ispinesib -0.174

C18orf25 isoform 2 (UniProt Q96B23)
inactive: [1] 0.088 | filanesib 0.015 | zotarolimus 0.03 | idasanutlin 0.121 | alisertib -0.481 | [2] 0.015 | gefitinib -0.082 | [3] 0.064 | lapatinib 0.044 | pictilisib -0.12 | [4] 0.02 | crizotinib -0.045 | [5] 0.032 | [6] 0.004 | duvelisib -0.06 | gandotinib -0.257 | tozasertib -0.019 | [7] 0.028 | doramapimod 0.042
